According to US12252714B2, “Halogenation of complex organic compounds” (REGENTS OF THE UNIVERSITY OF MICHIGAN, priority 2018, dated 2025):
At least one structure is not confirmed: it was looked up by name or label, or the drawing left a doubt.

Sequences of proteins named here, by UniProt entry; tags and fusion partners are left off. A change or cut given only in a name is not applied to a line headed by its entry.
UniProt L0E155: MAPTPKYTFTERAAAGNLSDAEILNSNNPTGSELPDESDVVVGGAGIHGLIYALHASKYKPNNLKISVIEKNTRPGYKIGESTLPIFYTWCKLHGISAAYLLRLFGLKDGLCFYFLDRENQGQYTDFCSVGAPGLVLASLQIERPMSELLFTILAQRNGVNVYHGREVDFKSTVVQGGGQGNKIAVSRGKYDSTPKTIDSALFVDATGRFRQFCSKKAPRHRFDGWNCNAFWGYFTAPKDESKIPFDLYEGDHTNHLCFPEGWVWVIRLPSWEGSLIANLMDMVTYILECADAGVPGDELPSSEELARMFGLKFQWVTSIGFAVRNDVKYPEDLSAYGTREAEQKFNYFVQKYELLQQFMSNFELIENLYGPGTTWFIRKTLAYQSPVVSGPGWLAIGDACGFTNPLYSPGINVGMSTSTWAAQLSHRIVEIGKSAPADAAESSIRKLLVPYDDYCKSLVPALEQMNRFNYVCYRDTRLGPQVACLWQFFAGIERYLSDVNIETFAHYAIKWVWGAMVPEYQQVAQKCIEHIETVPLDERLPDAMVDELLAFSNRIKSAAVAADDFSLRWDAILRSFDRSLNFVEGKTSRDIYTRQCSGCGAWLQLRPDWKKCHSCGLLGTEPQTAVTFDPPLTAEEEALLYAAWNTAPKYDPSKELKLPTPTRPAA

How the values were obtained:
MalA = biological target: T1, MalA (Malbranchea aurantiaca, UniProt L0E155); assay: Michaelis-Menten kinetics of MalA chlorination reactions; type: biochemical
T1 construct: The malA coding region was amplified from the cDNA template by PCR; made in house; host or cells: E. coli BL21 (DE3) with pGro7 (GroEL/GroES) chaperone plasmid
Procedure: Substrates malbrancheamide B (compound 3) and isomalbrancheamide B (compound 4) to product malbrancheamide (compound 1). Reactions were set up in a total volume of 250 μL with the following components: 1.1 μM MalA, 44 μM HpaC flavin reductase, 100 μM FAD, 50 mM NaCl, 3.6 mM NADH, and a variety of substrate concentrations ranging from 1 μM to 60 μM. Reactions were quenched with methanol by removing 50 μL at each time point (2, 5, 10, 15 minutes). Reactions were analyzed on a Schimadzu HPLC with the following LC time program: 40% acetonitrile for 1 minute, gradient over 6 minutes from 40-85% acetonitrile, 85% acetonitrile for 1 minute, gradient over 1 minute to 40% acetonitrile, re-equilibration to 40% acetonitrile for 3 minutes. The absorbance was measured at 240 nm and the mobile phase consisted of water and acetonitrile. A Phenomenex Lux cellulose-3, cellulose Tris (4-methylbenzoate) 250×4.6 mm column was used for separation. GraphPad Prism (Version 6.01) software was used to plot the initial velocities against the substrate concentration and to determine the kinetic constants kcat and Km.
Substrate premalbrancheamide (compound 2) to products isomalbrancheamide B (compound 4) and malbrancheamide B (compound 3). Reactions were set up in a total volume of 250 μL with the following components: 1.8 μM MalA, 44 μM HpaC, 100 μM FAD, 50 mM NaCl, 3.6 mM NADH, and a variety of substrate concentrations ranging from 5 μM to 80 μM. Reactions were quenched with 100 μL methanol by removing 50 μL at each time point (2, 5, 7, 10 minutes). Reactions were analyzed on a Schimadzu HPLC with the following LC time program: 34% acetonitrile for 1 minute, gradient over 11 minutes to 62% acetonitrile, 62% acetonitrile for 30 seconds, gradient over 30 seconds to 34% acetonitrile, re-equilibration to 34% for 3 minutes. The absorbance was measured at 240 nm and the mobile phase consisted of water and acetonitrile. A Phenomenex Lux cellulose-3 Tris (4-methylbenzoate) 250×4.6 mm column was used for separation.
Michaelis-Menten kinetic parameters were determined for the natural chlorination reactions of MalA. […] These catalytic efficiencies are fairly high compared to those of the eukaryotic FDH Rdc2, which are 2.93 min−1 mM−1 for the initial chlorination reaction and 0.11 min−1 mM−1 for the second chlorination reaction.^4

[1] = cited from earlier work
[2] = second chlorination, to compound 1

## CC1(C)c2[nH]c3ccc(Cl)cc3c2C[C@@]23CN4CCC[C@]4(C[C@@H]12)C(=O)N3 [compound 4, isomalbrancheamide B]
MalA; [2]
  catalytic efficiency kcat/Km: 495 M⁻¹ s⁻¹

## CC1(C)c2[nH]c3ccccc3c2CC23CN4CCCC4(CC21)C(=O)N3 (centres unmarked) [compound 2, premalbrancheamide]
MalA; chlorination, compound 2 to compound 3
  catalytic efficiency kcat/Km: 192 M⁻¹ s⁻¹
MalA; chlorination, compound 2 to compound 4
  catalytic efficiency kcat/Km: 200 M⁻¹ s⁻¹

## CC1(C)c2[nH]c3cc(Cl)ccc3c2C[C@@]23CN4CCC[C@]4(C[C@@H]12)C(=O)N3 [compound 3, malbrancheamide B]
MalA; [2]
  catalytic efficiency kcat/Km: 455 M⁻¹ s⁻¹

## CC1(C)c2[nH]c3cc(Cl)c(Cl)cc3c2C[C@@]23CN4CCC[C@]4(C[C@@H]12)C(=O)N3 [compound 1, malbrancheamide]
[1]
  vasorelaxant effect: significant vasorelaxant effect
